Measured values: the supplement of paper PMC10849652
The list shows a part of the results.

Protein sequences, listed by entry. Tags and fused reporters are not part of them. Lines headed by an entry give the natural chain unless they say otherwise; changes in a name come on top.
UniProt Q6XZF7: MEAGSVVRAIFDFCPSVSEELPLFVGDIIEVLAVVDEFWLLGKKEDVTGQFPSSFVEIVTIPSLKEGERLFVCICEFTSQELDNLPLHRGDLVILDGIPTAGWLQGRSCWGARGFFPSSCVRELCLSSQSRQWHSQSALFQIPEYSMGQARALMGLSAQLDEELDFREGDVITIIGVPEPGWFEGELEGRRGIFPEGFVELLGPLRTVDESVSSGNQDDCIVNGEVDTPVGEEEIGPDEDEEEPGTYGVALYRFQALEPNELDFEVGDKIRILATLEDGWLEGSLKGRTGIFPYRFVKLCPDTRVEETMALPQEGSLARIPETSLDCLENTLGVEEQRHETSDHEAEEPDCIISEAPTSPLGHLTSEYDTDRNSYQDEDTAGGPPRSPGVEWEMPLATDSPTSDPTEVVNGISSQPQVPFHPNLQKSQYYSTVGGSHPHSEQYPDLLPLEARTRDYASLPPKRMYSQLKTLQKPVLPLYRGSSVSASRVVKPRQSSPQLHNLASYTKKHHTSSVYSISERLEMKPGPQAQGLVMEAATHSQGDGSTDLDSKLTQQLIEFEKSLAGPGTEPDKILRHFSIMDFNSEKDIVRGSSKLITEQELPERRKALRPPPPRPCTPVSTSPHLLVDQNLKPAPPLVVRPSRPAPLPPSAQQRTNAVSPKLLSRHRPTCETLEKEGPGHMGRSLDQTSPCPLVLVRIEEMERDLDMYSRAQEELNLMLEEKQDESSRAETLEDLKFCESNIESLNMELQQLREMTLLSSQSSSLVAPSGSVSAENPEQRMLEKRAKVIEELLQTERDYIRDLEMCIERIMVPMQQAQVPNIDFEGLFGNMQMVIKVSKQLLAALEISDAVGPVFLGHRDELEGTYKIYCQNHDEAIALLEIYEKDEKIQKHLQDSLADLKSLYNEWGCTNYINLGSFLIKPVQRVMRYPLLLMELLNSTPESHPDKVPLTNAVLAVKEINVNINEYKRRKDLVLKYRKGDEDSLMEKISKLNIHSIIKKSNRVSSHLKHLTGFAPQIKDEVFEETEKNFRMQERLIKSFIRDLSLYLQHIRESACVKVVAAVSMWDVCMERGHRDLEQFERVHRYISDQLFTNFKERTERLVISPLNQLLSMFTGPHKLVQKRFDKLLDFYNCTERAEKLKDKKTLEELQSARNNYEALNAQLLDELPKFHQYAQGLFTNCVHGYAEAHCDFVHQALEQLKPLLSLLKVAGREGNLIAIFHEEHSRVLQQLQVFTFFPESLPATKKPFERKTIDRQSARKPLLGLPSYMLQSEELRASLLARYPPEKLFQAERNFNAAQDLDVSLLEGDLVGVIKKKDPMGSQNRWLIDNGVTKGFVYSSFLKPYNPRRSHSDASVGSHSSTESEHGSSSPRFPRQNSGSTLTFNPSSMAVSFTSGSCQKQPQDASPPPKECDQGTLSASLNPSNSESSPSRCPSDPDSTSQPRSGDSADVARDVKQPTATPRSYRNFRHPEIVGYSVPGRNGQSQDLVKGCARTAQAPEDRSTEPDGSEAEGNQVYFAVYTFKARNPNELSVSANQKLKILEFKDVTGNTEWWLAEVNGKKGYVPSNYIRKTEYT
UniProt P50570: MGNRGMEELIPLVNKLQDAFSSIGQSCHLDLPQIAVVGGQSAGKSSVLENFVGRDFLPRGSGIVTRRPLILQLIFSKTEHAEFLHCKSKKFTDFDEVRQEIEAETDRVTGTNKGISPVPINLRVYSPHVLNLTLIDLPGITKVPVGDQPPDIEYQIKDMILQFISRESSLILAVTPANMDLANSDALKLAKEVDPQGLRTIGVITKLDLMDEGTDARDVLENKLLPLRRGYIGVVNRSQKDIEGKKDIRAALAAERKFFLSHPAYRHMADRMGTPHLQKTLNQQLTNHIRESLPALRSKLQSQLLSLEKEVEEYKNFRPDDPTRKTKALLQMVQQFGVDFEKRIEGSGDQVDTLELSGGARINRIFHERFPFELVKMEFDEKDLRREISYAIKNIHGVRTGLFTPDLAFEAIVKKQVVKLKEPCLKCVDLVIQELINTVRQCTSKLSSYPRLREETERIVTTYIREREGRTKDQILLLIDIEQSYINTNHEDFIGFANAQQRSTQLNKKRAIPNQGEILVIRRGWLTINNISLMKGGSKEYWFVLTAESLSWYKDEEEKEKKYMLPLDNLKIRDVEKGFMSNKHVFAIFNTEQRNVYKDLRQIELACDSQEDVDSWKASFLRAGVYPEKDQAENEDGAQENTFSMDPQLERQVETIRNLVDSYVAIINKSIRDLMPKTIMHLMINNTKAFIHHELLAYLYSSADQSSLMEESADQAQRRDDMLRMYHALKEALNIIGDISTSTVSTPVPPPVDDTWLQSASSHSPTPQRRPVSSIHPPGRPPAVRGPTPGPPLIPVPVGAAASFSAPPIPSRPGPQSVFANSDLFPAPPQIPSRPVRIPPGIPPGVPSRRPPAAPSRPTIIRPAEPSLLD
UniProt O75937: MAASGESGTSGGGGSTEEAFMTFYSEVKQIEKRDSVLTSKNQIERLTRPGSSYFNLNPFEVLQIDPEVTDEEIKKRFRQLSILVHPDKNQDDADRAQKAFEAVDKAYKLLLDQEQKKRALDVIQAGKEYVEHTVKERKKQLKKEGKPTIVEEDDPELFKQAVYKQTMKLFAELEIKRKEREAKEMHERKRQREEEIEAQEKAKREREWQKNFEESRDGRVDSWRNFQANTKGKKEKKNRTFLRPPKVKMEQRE
UniProt Q6UWP2: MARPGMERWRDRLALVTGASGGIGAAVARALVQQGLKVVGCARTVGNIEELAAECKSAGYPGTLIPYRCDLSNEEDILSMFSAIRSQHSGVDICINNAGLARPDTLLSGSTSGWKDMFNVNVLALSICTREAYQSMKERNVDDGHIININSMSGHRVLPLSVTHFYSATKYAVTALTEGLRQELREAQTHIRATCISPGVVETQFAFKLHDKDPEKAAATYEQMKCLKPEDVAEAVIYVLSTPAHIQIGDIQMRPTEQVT
UniProt Q14562: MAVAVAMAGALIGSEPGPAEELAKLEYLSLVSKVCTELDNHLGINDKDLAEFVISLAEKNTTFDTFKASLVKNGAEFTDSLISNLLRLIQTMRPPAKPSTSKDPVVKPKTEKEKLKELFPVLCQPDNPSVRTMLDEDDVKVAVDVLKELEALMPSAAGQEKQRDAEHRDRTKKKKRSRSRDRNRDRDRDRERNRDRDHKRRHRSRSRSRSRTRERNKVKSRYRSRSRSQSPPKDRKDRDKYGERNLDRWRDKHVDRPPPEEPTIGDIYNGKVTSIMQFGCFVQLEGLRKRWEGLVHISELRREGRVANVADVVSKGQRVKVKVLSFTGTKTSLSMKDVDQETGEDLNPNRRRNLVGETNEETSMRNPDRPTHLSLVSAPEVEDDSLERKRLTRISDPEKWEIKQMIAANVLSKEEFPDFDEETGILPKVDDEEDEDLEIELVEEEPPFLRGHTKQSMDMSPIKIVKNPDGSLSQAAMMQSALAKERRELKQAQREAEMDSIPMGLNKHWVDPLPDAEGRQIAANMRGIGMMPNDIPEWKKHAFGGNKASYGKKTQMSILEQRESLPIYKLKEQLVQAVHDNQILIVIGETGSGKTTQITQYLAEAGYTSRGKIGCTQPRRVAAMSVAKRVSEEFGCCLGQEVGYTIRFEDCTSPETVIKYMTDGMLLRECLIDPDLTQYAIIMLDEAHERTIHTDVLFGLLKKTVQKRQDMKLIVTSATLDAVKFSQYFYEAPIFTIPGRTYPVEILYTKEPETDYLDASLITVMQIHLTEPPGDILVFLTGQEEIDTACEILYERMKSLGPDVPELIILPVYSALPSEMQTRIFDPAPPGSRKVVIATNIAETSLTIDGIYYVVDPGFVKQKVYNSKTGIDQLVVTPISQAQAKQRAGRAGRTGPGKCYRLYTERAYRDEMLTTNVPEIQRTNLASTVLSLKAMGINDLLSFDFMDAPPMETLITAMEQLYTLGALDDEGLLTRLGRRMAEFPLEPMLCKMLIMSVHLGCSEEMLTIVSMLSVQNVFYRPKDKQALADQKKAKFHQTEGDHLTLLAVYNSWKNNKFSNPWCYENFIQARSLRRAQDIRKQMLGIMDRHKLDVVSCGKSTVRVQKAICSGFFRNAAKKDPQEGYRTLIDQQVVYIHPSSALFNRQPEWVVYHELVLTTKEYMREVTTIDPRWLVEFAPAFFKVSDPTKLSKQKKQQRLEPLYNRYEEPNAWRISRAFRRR
UniProt Q9Y222: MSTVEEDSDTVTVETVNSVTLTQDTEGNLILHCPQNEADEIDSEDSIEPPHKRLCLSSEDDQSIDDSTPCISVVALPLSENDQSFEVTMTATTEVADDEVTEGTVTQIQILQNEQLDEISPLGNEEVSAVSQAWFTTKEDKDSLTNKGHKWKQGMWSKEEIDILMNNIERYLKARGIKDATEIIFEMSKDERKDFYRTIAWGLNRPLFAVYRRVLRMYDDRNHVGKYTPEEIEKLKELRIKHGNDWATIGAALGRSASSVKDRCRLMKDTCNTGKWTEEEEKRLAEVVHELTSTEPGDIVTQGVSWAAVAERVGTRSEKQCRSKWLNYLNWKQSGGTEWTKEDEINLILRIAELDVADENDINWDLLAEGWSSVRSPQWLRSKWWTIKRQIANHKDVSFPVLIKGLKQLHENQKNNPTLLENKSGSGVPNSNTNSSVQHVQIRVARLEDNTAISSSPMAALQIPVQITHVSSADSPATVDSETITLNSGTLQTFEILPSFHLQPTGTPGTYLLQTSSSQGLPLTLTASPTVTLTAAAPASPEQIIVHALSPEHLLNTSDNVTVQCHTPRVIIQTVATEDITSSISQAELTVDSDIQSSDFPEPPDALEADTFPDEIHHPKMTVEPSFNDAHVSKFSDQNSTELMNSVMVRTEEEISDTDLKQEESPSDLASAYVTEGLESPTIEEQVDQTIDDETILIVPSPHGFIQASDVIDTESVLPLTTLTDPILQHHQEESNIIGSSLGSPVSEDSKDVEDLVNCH
UniProt Q9UPQ8: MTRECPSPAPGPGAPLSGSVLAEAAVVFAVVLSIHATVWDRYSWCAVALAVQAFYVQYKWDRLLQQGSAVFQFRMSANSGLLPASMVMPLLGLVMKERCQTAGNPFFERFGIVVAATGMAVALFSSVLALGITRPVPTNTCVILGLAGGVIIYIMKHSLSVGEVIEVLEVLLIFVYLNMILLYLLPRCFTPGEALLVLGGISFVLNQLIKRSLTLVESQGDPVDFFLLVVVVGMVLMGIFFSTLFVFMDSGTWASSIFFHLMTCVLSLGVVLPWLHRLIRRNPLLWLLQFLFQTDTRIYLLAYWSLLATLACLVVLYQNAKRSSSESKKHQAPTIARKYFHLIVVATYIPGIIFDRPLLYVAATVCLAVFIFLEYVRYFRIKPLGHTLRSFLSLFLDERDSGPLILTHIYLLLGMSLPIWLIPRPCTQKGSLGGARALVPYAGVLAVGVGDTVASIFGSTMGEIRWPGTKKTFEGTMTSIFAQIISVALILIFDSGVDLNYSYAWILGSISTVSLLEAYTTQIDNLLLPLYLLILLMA
UniProt Q9Y2L1: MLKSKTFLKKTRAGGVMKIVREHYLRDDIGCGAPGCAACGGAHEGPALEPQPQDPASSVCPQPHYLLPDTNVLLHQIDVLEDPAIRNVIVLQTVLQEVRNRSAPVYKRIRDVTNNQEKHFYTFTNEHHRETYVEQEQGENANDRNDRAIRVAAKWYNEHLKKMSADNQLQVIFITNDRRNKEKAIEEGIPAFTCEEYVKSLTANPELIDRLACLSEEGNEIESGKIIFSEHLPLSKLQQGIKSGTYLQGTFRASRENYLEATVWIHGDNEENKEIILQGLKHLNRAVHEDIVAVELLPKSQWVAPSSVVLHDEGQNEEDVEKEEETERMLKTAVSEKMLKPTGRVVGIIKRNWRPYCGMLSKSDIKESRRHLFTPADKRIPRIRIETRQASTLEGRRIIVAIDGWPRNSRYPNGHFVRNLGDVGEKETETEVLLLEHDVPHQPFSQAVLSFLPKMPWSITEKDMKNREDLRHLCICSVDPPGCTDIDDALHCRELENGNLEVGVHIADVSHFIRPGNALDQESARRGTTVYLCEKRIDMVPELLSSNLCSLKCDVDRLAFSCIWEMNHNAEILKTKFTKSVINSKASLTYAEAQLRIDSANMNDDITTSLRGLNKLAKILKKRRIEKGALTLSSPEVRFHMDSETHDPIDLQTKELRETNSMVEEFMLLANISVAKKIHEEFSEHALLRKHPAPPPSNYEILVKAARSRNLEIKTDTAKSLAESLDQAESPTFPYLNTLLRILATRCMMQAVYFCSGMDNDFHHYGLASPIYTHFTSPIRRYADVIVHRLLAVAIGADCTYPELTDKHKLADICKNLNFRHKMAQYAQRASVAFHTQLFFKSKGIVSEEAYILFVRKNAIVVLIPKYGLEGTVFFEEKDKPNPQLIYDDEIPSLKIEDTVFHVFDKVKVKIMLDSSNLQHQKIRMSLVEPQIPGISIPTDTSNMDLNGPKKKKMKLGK

Assays:
Assay in all cases: log2 fold change, soluble protein after heating vs DMSO (PISA); higher = thermal stabilisation; K562 lysate, 10 uM; active = over 0.2 and 3.5 SD of the protein, either way, in both replicates (recomputed)
alvocidib = compound: CN1CC[C@H](c2c(O)cc(O)c3c(=O)cc(-c4ccccc4Cl)oc23)[C@H](O)C1 [alvocidib]
In short: (§1)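 Log-two fold change in thermal stability relative to solvent controls is reported from duplicates. For each sample, crude K562 extract from dounce-homogenised pellets in PBS pH 7.4 with 1 mM MgCl2, at 1 mg/mL protein, was treated with 10 μM compound for 30 min. Aliquots heated for 3 min across 48°C-58°C were pooled, brought to 0.5% NP-40 at 4°C and cleared at 21,000xg for 90 min. The supernatant was quantified by TMTpro 16plex LC-MS/MS with channel sums equalised.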

Tubastatin A = compound: CN1CCc2c(c3ccccc3n2Cc2ccc(C(=O)NO)cc2)C1 [Tubastatin A]
In short: as §1

[1] = compound: CNC(=O)C1=CC=CC=C1NC2=NC(=NC=C2Cl)NC3=C(C=C(C=C3)N4CCOCC4)OC
In short: as §1

defactinib = compound: CNC(=O)c1ccc(Nc2ncc(C(F)(F)F)c(NCc3nccnc3N(C)S(C)(=O)=O)n2)cc1 [defactinib]
In short: as §1

[2] = compound: CNc1nc(-c2ccc3c(N)n[nH]c3c2)cc(N2C[C@@H](C(=O)NC3CCCCC3)CC[C@H]2C)n1
In short: as §1

encorafenib = compound: COC(=O)N[C@@H](C)CNc1nccc(-c2cn(C(C)C)nc2-c2cc(Cl)cc(NS(C)(=O)=O)c2F)n1 [encorafenib]
In short: as §1

[3] = compound: COC(=O)[C@H](CCSC)NC(=O)C1=C(C=C(C=C1)NC[C@H](CS)N)C2=CC=CC=C2
In short: as §1

alisertib = compound: COc1cc(Nc2ncc3c(n2)-c2ccc(Cl)cc2C(c2c(F)cccc2OC)=NC3)ccc1C(=O)O [alisertib]
In short: as §1

[4] = compound: COc1cc2nc(-c3cc(F)ccc3O)nc(N[C@@H]3CNC[C@H]3C(C)(C)O)c2cc1OC
In short: as §1

gefitinib = compound: COc1cc2ncnc(Nc3ccc(F)c(Cl)c3)c2cc1OCCCN1CCOCC1 [gefitinib]
In short: as §1

Measured: log2 fold change

DNMBP (UniProt Q6XZF7)
inactive: alvocidib -0.003 | Tubastatin A -0.082 | [1] 0.035 | defactinib -0.064 | [2] -0.037 | encorafenib 0 | [3] 0.048 | alisertib -0.117 | [4] -0.037 | gefitinib 0.185

DLD (UniProt P09622)
inactive: alvocidib -0.024 | Tubastatin A 0.041 | [1] 0.03 | defactinib -0.02 | [2] 0.046 | encorafenib -0.014 | [3] -0.13 | alisertib 0 | [4] 0.008 | gefitinib -0.055

DNAJC10 (UniProt Q8IXB1)
inactive: alvocidib -0.034 | Tubastatin A 0.005 | [1] 0.015 | defactinib 0.035 | [2] 0.033 | encorafenib 0.012 | [3] 0.184 | alisertib -0.009 | [4] -0.009 | gefitinib -0.005

DHRS7 (UniProt Q9Y394)
inactive: alvocidib -0.039 | Tubastatin A 0.043 | [1] 0.024 | defactinib -0.039 | [2] 0.115 | encorafenib -0.015 | [3] -0.078 | alisertib 0.032 | [4] -0.039 | gefitinib 0.055

DNM2 (UniProt P50570)
inactive: alvocidib 0.037 | Tubastatin A -0.051 | [1] 0.024 | defactinib 0.007 | [2] 0.029 | encorafenib -0.004 | [3] 0.061 | alisertib 0.014 | [4] -0.02 | gefitinib 0.006

DNAH10 (UniProt Q8IVF4)
inactive: alvocidib -0.248 | Tubastatin A 0.056 | [1] -0.086 | defactinib -0.074 | [2] 0.246 | encorafenib -0.04 | [3] -0.001 | alisertib 0.027 | [4] 0.046 | gefitinib 0.043

DICER1 (UniProt Q9UPY3)
inactive: alvocidib -0.032 | Tubastatin A -0.172 | [1] 0.112 | defactinib 0.046 | [2] -0.003 | encorafenib 0.037 | [3] 0.039 | alisertib 0.012 | [4] -0.022 | gefitinib -0.027

DHRS3 (UniProt O75911)
inactive: alvocidib -0.013 | Tubastatin A 0.105 | [1] 0.043 | defactinib -0.006 | [2] 0.085 | encorafenib -0.044 | [3] 0.151 | alisertib -0.006 | [4] -0.011 | gefitinib 0.071

DNAJC8 (UniProt O75937)
inactive: alvocidib 0.023 | Tubastatin A 0.066 | [1] -0.014 | defactinib -0.009 | [2] -0.031 | encorafenib -0.017 | [3] -0.002 | alisertib -0.01 | [4] -0.031 | gefitinib 0.038

DHX36 (UniProt Q9H2U1)
inactive: alvocidib 0.005 | Tubastatin A -0.027 | [1] 0.012 | defactinib -0.001 | [2] -0.02 | encorafenib -0.007 | [3] 0.03 | alisertib -0.003 | [4] 0 | gefitinib -0.015

DHRS2 (UniProt Q13268)
inactive: alvocidib 0.07 | Tubastatin A -0.013 | [1] -0.029 | defactinib 0.012 | [2] -0.051 | encorafenib 0.022 | [3] -0.091 | alisertib 0.01 | [4] 0.011 | gefitinib 0.097

DNPH1 (UniProt H0Y8X4)
inactive: alvocidib -0.005 | Tubastatin A 0.004 | [1] 0.052 | defactinib 0.012 | [2] 0 | encorafenib 0.001 | [3] 0 | alisertib 0.017 | [4] 0 | gefitinib -0.016

DNAJC21 isoform 3 (UniProt Q5F1R6)
inactive: alvocidib 0.052 | Tubastatin A -0.02 | [1] 0.018 | defactinib 0.008 | [2] -0.027 | encorafenib 0.062 | [3] -0.067 | alisertib 0.028 | [4] 0 | gefitinib -0.064

DOCK10 (UniProt Q96BY6)
inactive: alvocidib -0.354 | Tubastatin A -0.028 | [1] 0.208 | defactinib 0.133 | [2] 0.046 | encorafenib 0.067 | [3] -0.002 | alisertib 0.05 | [4] -0.042 | gefitinib 0.084

DHRS11 (UniProt Q6UWP2)
inactive: alvocidib -0.001 | Tubastatin A -0.083 | [1] 0.055 | defactinib 0.021 | [2] 0.031 | encorafenib 0.024 | [3] 0.109 | alisertib -0.074 | [4] 0.031 | gefitinib -0.022

DLAT (UniProt P10515)
inactive: alvocidib -0.01 | Tubastatin A 0.099 | [1] -0.047 | defactinib -0.028 | [2] 0.058 | encorafenib -0.019 | [3] -0.037 | alisertib 0.021 | [4] 0.031 | gefitinib -0.003

DNAJC11 (UniProt Q9NVH1)
inactive: alvocidib 0.008 | Tubastatin A -0.019 | [1] -0.011 | defactinib -0.024 | [2] 0.004 | encorafenib 0.006 | [3] -0.035 | alisertib 0.008 | [4] -0.03 | gefitinib -0.065

DNAJC17 (UniProt Q9NVM6)
inactive: alvocidib -0.047 | Tubastatin A 0.032 | [1] 0.024 | defactinib -0.031 | [2] 0.034 | encorafenib 0.044 | [3] -0.115 | alisertib 0 | [4] 0.015 | gefitinib 0.064

Copied from above (nine entries):
DNAJC8 (UniProt O75937)
inactive: alvocidib 0.023 | Tubastatin A 0.066 | [1] -0.014 | defactinib -0.009 | [2] -0.031 | encorafenib -0.017 | [3] -0.002 | alisertib -0.01 | [4] -0.031 | gefitinib 0.038

DHX36 (UniProt Q9H2U1)
inactive: alvocidib 0.005 | Tubastatin A -0.027 | [1] 0.012 | defactinib -0.001 | [2] -0.02 | encorafenib -0.007 | [3] 0.03 | alisertib -0.003 | [4] 0 | gefitinib -0.015

DHRS2 (UniProt Q13268)
inactive: alvocidib 0.07 | Tubastatin A -0.013 | [1] -0.029 | defactinib 0.012 | [2] -0.051 | encorafenib 0.022 | [3] -0.091 | alisertib 0.01 | [4] 0.011 | gefitinib 0.097

DNPH1 (UniProt H0Y8X4)
inactive: alvocidib -0.005 | Tubastatin A 0.004 | [1] 0.052 | defactinib 0.012 | [2] 0 | encorafenib 0.001 | [3] 0 | alisertib 0.017 | [4] 0 | gefitinib -0.016

DNAJC21 isoform 3 (UniProt Q5F1R6)
inactive: alvocidib 0.052 | Tubastatin A -0.02 | [1] 0.018 | defactinib 0.008 | [2] -0.027 | encorafenib 0.062 | [3] -0.067 | alisertib 0.028 | [4] 0 | gefitinib -0.064

DOCK10 (UniProt Q96BY6)
inactive: alvocidib -0.354 | Tubastatin A -0.028 | [1] 0.208 | defactinib 0.133 | [2] 0.046 | encorafenib 0.067 | [3] -0.002 | alisertib 0.05 | [4] -0.042 | gefitinib 0.084

DHRS11 (UniProt Q6UWP2)
inactive: alvocidib -0.001 | Tubastatin A -0.083 | [1] 0.055 | defactinib 0.021 | [2] 0.031 | encorafenib 0.024 | [3] 0.109 | alisertib -0.074 | [4] 0.031 | gefitinib -0.022

DLAT (UniProt P10515)
inactive: alvocidib -0.01 | Tubastatin A 0.099 | [1] -0.047 | defactinib -0.028 | [2] 0.058 | encorafenib -0.019 | [3] -0.037 | alisertib 0.021 | [4] 0.031 | gefitinib -0.003

DNAJC11 (UniProt Q9NVH1)
inactive: alvocidib 0.008 | Tubastatin A -0.019 | [1] -0.011 | defactinib -0.024 | [2] 0.004 | encorafenib 0.006 | [3] -0.035 | alisertib 0.008 | [4] -0.03 | gefitinib -0.065

(list continues)

DNAL1 (UniProt Q4LDG9)
inactive: alvocidib -0.11 | Tubastatin A -0.148 | [1] -0.033 | defactinib -0.03 | [2] 0 | encorafenib -0.093 | [3] 0.045

DNAH8 (UniProt Q96JB1)
inactive: alvocidib -0.092 | Tubastatin A 0.178 | [1] 0.153 | defactinib -0.095 | [2] 0.214 | encorafenib -0.013 | [3] -0.036 | alisertib 0.049 | [4] 0.18 | gefitinib 0.115

DHX8 (UniProt Q14562)
inactive: alvocidib -0.051 | Tubastatin A 0 | [1] -0.059 | defactinib -0.016 | [2] -0.095 | encorafenib 0.047 | [3] -0.042 | alisertib 0.002 | [4] -0.006 | gefitinib 0.065

DHX57 (UniProt Q6P158)
inactive: alvocidib 0.005 | Tubastatin A -0.039 | [1] -0.021 | defactinib 0 | [2] -0.004 | encorafenib -0.013 | [3] 0.052 | alisertib -0.016 | [4] -0.006 | gefitinib 0.062

DMTF1 (UniProt Q9Y222)
inactive: alvocidib -0.028 | Tubastatin A 0.001 | [1] -0.006 | defactinib -0.092 | [2] -0.051 | encorafenib -0.031 | [3] 0.082 | alisertib -0.078 | [4] 0.049 | gefitinib -0.05

DGKE (UniProt P52429)
inactive: alvocidib -0.049 | Tubastatin A 0.084 | [1] 0.052 | defactinib -0.002 | [2] -0.519 | encorafenib -0.238 | [3] 0.126

DHX15 (UniProt O43143)
inactive: alvocidib 0.004 | Tubastatin A 0.029 | [1] -0.015 | defactinib -0.022 | [2] 0.004 | encorafenib 0.001 | [3] -0.016 | alisertib 0.017 | [4] 0.005 | gefitinib 0.033

DOLK (UniProt Q9UPQ8)
inactive: alvocidib 0.115

DHRS1 (UniProt Q96LJ7)
inactive: alvocidib -0.057 | Tubastatin A 0.02 | [1] 0.188 | defactinib -0.238 | [2] -0.012 | encorafenib 0.164 | [3] -0.102 | alisertib 0.059 | [4] 0.028 | gefitinib -0.075

DIP2B (UniProt Q9P265)
inactive: alvocidib -0.029 | Tubastatin A 0.016 | [1] 0.019 | defactinib -0.019 | [2] 0.006 | encorafenib 0 | [3] -0.006 | alisertib -0.017 | [4] -0.003 | gefitinib -0.028

DIS3 (UniProt Q9Y2L1)
inactive: alvocidib 0.01 | Tubastatin A 0.012 | [1] 0.012 | defactinib -0.015 | [2] 0.021 | encorafenib 0.016 | [3] 0.016 | alisertib 0.008 | [4] 0.014 | gefitinib -0.009

DNAJC9 (UniProt Q8WXX5)
inactive: alvocidib 0.008 | Tubastatin A -0.003 | [1] 0.012 | defactinib -0.014 | [2] 0.026 | encorafenib -0.007 | [3] -0.074 | alisertib 0.023 | [4] -0.01 | gefitinib -0.011

DMTN (UniProt Q08495)
inactive: alvocidib 0.011 | Tubastatin A 0.041 | [1] -0.012 | defactinib -0.014 | [2] 0.023 | encorafenib 0.013 | [3] -0.069 | alisertib -0.015 | [4] 0.011 | gefitinib 0.017

DNAJB14 (UniProt H7C494)
inactive: alvocidib -0.02 | Tubastatin A 0.012
